The other results are listed elsewhere or left out. Shown are side measurements of this screen, not its main read-out; they come without a call. Compounds called inactive in the main read-out are mostly missing here. Words in brackets tell the shape of the fitted curve; partial curves, single points and poor fits give uncertain potencies.
Assay: qHTS Assay for Lipid Storage Modulators in Drosophila S3 Cells;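 for cell number change: cells counted by Cell Tracker Red CMTPX staining in the red channel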
Settings: BODIPY lipid droplet fluorescence, 18-24 h; for cell number change: measured here: cell count max response, cells fed with added oleic acid
Method in brief: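 Drosophila S3 cells got compounds at several concentrations plus oleic acid (400 uM solution). Laser-scanning cytometry with 488 nm excitation read lipid droplets at 500-530 nm and cells at 575-640 nm. Percent activity was relative to 20 uM Triacsin C.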

[1] = measured here: cell number channel AC50, cells fed with added oleic acid
[2] = measured here: lipid fluorescence (Fed channel) AC50, cells fed with added oleic acid

For `COc1cccc(-c2cc(C(=O)NC3CCCCC3)no2)c1`, the cell number change was 35.7% and the AC50 [1] was 8.2 µM [rising, partial curve, poor fit].
In the case of `COc1ccccc1C(=O)NCC(=O)N/N=C/c1ccncc1`, the cell number change is reported as 24.9% and the AC50 [2] is reported as 4.11 µM [falling, single point].
For `COc1cc(OC)c(NC(=O)CCc2nc(-c3cccs3)no2)cc1Cl`, the cell number change was -63.8%, the AC50 [1] was 29.1 µM [falling, partial curve, poor fit] and the AC50 [2] was 4.11 µM [rising, full curve, poor fit].
For `Cc1cccc(N2CCN(C(=O)COc3ccc4ccc(=O)oc4c3)CC2)c1C`, the cell number change was 6.12% and the AC50 [2] was 18.4 µM [falling, single point].
With `CCOc1cc2[nH]c(=O)n(CCCC(=O)N(C)Cc3ccccc3)c(=O)c2cc1OCC` the cell number change was -60.2% and the AC50 [1] was 20.6 µM [falling, partial curve].
For `COc1ccc(CN2CC(C(=O)N3CC(C)CC(C)C3)CC2=O)cc1` (stereo not drawn), the cell number change was 4.45%.
With `Cc1ccc(C(=O)N/N=C(\CC(C)C)c2ccccc2)cc1` the cell number change was -3.45% and the AC50 [2] was 6.51 µM [rising, partial curve, poor fit].
For `O=C(NCCc1ccco1)C(=O)NCC1OCCCN1S(=O)(=O)c1ccc(Cl)cc1` (stereo not drawn), the AC50 [2] was 0.082 µM [rising, full curve, poor fit].
For `COc1ccc(-n2c(SCC(=O)Nc3ccccc3)nc3c(c2=O)SCC3)cc1`, the AC50 [1] was 0.651 µM [rising, single point] and the AC50 [2] was 0.731 µM [rising, full curve].
For `COc1ccc(C(=O)NCC(c2ccco2)N2CCc3ccccc3C2)cc1` (stereo not drawn), the cell number change was 89.9% and the AC50 [1] was 18.4 µM [rising, partial curve].
With `Cc1ccc(Oc2ccc(OCC(=O)NC3CCS(=O)(=O)C3)cc2)cc1` (stereo not drawn) the cell number change was -26.7% and the AC50 [2] was 29.1 µM [falling, single point].
For `O=C(Nc1ccccc1C(=O)Nc1ccc(Br)cn1)c1ccccc1Cl`, the cell number change was -15.9% and the AC50 [2] was 14.6 µM [falling, single point].
In the case of `Cc1ccc(NC(=O)c2ccc(COc3ccccc3)o2)nc1`, the cell number change is reported as 24.6% and the AC50 [1] is reported as 0.731 µM [rising, full curve, poor fit].
For `Cc1ccc2[nH]c(=O)c(CN(CCO)Cc3nnnn3CCc3ccccc3)cc2c1`, the cell number change was 37.5%, the AC50 [1] was 18.4 µM [rising, single point] and the AC50 [2] was 29.1 µM [rising, single point].
In the case of `COc1cc(-n2c(=O)c3ccccc3n(CC(=O)c3ccccc3)c2=O)cc(OC)c1OC`, the cell number change is reported as -24.7%, the AC50 [1] is reported as 3.66 µM [falling, full curve, poor fit] and the AC50 [2] is reported as 2.91 µM [falling, full curve, poor fit].
With `COc1ccc(-c2oc3ccc(-c4ccc(OC)nc4)cc3c2C#CC2(O)CCCCC2)cc1` the cell number change was 34.6%, the AC50 [1] was 13 µM [rising, single point] and the AC50 [2] was 29.1 µM [rising, single point].
In the case of `O=C(Nc1c(Cl)ccc2nsnc12)c1ccco1`, the cell number change is reported as 27.6% and the AC50 [1] is reported as 7.31 µM [falling, partial curve, poor fit].
In the case of `CCCC1C2C(=O)N(c3ccccc3)C(=O)C2ON1c1ccccc1` (stereo not drawn), the cell number change is reported as -77.4%, the AC50 [1] is reported as 14.6 µM [falling, partial curve] and the AC50 [2] is reported as 0.206 µM [falling, full curve, poor fit].
For `Cc1c(Br)cccc1NC(=O)c1sccc1-n1cccc1`, the cell number change was 44.4% and the AC50 [1] was 20.6 µM [rising, single point].
In the case of `CN(C)c1nc(-c2cn(CCC#N)c3ccccc23)cs1`, the cell number change is reported as 4.5% and the AC50 [2] is reported as 0.58 µM [rising, single point].
For `COc1ccc(/C=C/C(=O)OCC(=O)Nc2c(C)cccc2C)cc1`, the cell number change was 65.8% and the AC50 [2] was 23.1 µM [rising, single point].
With `CCOC(=O)C1C(c2cccc(Cl)c2Cl)NC(=O)NC1(O)C(F)(F)F` (stereo not drawn) the AC50 [2] was 0.00461 µM [falling, full curve, poor fit].
With `Nc1nc(-c2ccc(Br)cc2)cs1` the cell number change was -0.431% and the AC50 [2] was 4.61 µM [rising, single point].
In the case of `Cc1cc(NC(=O)CSCC(=O)Nc2cc(C(F)(F)F)ccc2N2CCOCC2)no1`, the cell number change is reported as 51.4%, the AC50 [1] is reported as 23.1 µM [rising, partial curve] and the AC50 [2] is reported as 20.6 µM [rising, partial curve].
In the case of `COc1ccccc1NC(=O)Cc1nnc(SCC(=O)c2ccccc2)n1C`, the cell number change is reported as 7.56% and the AC50 [2] is reported as 9.2 µM [rising, partial curve].
For `CC(C)CSc1nnc2c(n1)[nH]c1ccccc12`, the cell number change was 13% and the AC50 [2] was 5.8 µM [rising, single point].
In the case of `CC(=O)c1cccc(NC(=O)COc2ccc3oc(=O)cc(C)c3c2)c1`, the cell number change is reported as -9.3% and the AC50 [2] is reported as 10.3 µM [falling, partial curve, poor fit].
In the case of `COc1ccc(Cl)cc1NC(=O)C(OC)c1ccccc1` (stereo not drawn), the cell number change is reported as -52.9% and the AC50 [1] is reported as 20.6 µM [falling, single point].
For `C=C(C)COc1ccc(-c2n[nH]c(C)c2-c2ccccc2OC)c(O)c1`, the cell number change was -78.8%, the AC50 [1] was 23.1 µM [falling, partial curve] and the AC50 [2] was 29.1 µM [falling, single point].
With `CCN1CCCC1CNCc1cccc(OC)c1OCc1ccccc1` (stereo not drawn) the cell number change was -16.7%, the AC50 [1] was 1.64 µM [rising, partial curve] and the AC50 [2] was 16.4 µM [rising, single point].
With `O=C(NNc1nc(N2CCOCC2)nc(N2CCOCC2)n1)Nc1ccc(Cl)cc1` the AC50 [1] was 2.31 µM [rising, single point].
In the case of `COc1ccc(OC)c(C(=O)c2ccc(Cl)cc2)c1`, the cell number change is reported as 3.57% and the AC50 [2] is reported as 0.092 µM [rising, single point].
With `CCCNC(=O)Nc1cc(S(=O)(=O)CC)ccc1O` the cell number change was 40.5% and the AC50 [1] was 18.4 µM [rising, single point].
In the case of `CCOc1ccc(S(=O)(=O)N2CCC(C(=O)NCc3cccnc3)CC2)cc1C`, the cell number change is reported as 16.4% and the AC50 [2] is reported as 29.1 µM [rising, single point].
For `CC1(C)CC(NC(=O)C2CCC(=O)N(Cc3ccccc3F)C2)CC(C)(C)C1` (stereo not drawn), the cell number change was -18.2% and the AC50 [2] was 0.58 µM [rising, single point].
For `O=C(Nc1ccccc1F)C1CCN(C(=O)NCc2ccccc2)CC1`, the cell number change was 31.2% and the AC50 [1] was 20.6 µM [rising, partial curve].
With `Cc1cc(C)cc(NC(=O)CSc2nc3c(c(=O)n2C)SC(C)C3)c1` (stereo not drawn) the AC50 [1] was 1.84 µM [rising, partial curve] and the AC50 [2] was 2.06 µM [rising, partial curve].
`S=C1NC2(CCCC2)Nc2ccccc21` showed a cell number change of -23.9%.
In the case of `Cc1cccc(C2Nc3ccccc3C(=O)N2NC(=O)c2ccc([N+](=O)[O-])cc2)n1` (stereo not drawn), the cell number change is reported as 32.7%, the AC50 [1] is reported as 32.6 µM [rising, single point] and the AC50 [2] is reported as 9.2 µM [rising, partial curve, poor fit].
Compound `Cc1nc(N/N=C/c2ccc(O)cc2O)cc(N2CCOCC2)n1` has a cell number change of -10.6%.
For `O=C(NCCCNC(=O)c1ccco1)c1ccc(Cl)c(Cl)c1`, the cell number change was 11.2%.
In the case of `Cc1csc(NC(=O)Cc2c[nH]c3ccccc23)n1`, the cell number change is reported as 31.6%, the AC50 [1] is reported as 29.1 µM [rising, single point] and the AC50 [2] is reported as 23.1 µM [rising, partial curve].
For `Cc1ccc(S(=O)(=O)N(CC(=O)N/N=C/c2cccc(C)c2)c2cccc3cccnc23)cc1`, the cell number change was -16.8% and the AC50 [2] was 0.58 µM [rising, single point].
For `CCOC(=O)CSc1n[nH]c(NC(=O)c2cccc(C(F)(F)F)c2)n1`, the cell number change was 17.8% and the AC50 [1] was 0.411 µM [rising, full curve, poor fit].
In the case of `Clc1ccccc1-c1nc(/C=N/N2CCOCC2)c2ccccn12`, the cell number change is reported as 74.7%, the AC50 [1] is reported as 16.4 µM [rising, single point] and the AC50 [2] is reported as 25.9 µM [rising, partial curve].
For `CCNC(=O)c1ccccc1SCC(=O)Nc1ccc(F)cc1`, the cell number change was 40.4% and the AC50 [1] was 10.3 µM [rising, single point].
For `CCC(=O)N(c1nnc(SCC(=O)Nc2ccccc2Cl)s1)C1CC1`, the cell number change was -18.8%, the AC50 [1] was 0.461 µM [falling, full curve, poor fit] and the AC50 [2] was 0.116 µM [falling, full curve].
`Cc1sc(NC(=O)CN(C)C2CCCCC2)nc1-c1ccc2c(c1)CCN2S(=O)(=O)c1ccccc1` showed a cell number change of -2.1%.
For `COc1ccc(S(=O)(=O)NCC(c2cccnc2)N2CCN(Cc3ccccc3)CC2)cc1` (stereo not drawn), the cell number change was -8.67% and the AC50 [2] was 0.092 µM [falling, full curve].
In the case of `NCCCNC(=O)c1ccc(/C=N/O)nc1`, the cell number change is reported as -1.19% and the AC50 [2] is reported as 0.651 µM [falling, full curve, poor fit].
For `O=C(CSc1nc2ccccc2o1)Nc1ccccc1N1CCOCC1`, the cell number change was 57.7%, the AC50 [1] was 0.366 µM [rising, full curve] and the AC50 [2] was 0.146 µM [rising, full curve, poor fit].
For `O=c1oc(-c2ccccc2NS(=O)(=O)c2ccc(Cl)cc2)nc2ccccc12`, the cell number change was -0.397%, the AC50 [1] was 0.58 µM [falling, single point] and the AC50 [2] was 0.517 µM [falling, single point].
With `Cc1cc(N2CCOCC2)ccc1/C=C1\NC(=O)N(CC(=O)Nc2ccccc2C)C1=O` the cell number change was 18.1%.
In the case of `CC(Oc1cccc(Cl)c1)C(=O)Nc1cc(=O)n(C)c(=O)n1C` (stereo not drawn), the AC50 [1] is reported as 0.092 µM [rising, full curve] and the AC50 [2] is reported as 0.092 µM [rising, full curve, poor fit].
For `COc1ccccc1NC(=S)N/N=C/c1cccc(C)c1`, the cell number change was 14.8% and the AC50 [2] was 1.16 µM [rising, partial curve, poor fit].
With `CCOc1ccccc1NC(=O)C(NC(=O)C1CCC(C)CC1)C(C)C` (stereo not drawn) the cell number change was -2.18%.
With `N#Cc1ccc(CSCC(=O)O)cc1` the cell number change was -1.23% and the AC50 [2] was 2.06 µM [falling, partial curve].

— PubChem BioAssay AID2685 (National Center for Advancing Translational Sciences (NCATS), 2010)
